From PMC5643561, “Zdhhc13-dependent Drp1 S-palmitoylation impacts brain bioenergetics, anxiety, coordination and motor skills” (Scientific Reports, 2017)

Amino acid sequences for entries named in this document (tags omitted).
UniProt Q8K1M6: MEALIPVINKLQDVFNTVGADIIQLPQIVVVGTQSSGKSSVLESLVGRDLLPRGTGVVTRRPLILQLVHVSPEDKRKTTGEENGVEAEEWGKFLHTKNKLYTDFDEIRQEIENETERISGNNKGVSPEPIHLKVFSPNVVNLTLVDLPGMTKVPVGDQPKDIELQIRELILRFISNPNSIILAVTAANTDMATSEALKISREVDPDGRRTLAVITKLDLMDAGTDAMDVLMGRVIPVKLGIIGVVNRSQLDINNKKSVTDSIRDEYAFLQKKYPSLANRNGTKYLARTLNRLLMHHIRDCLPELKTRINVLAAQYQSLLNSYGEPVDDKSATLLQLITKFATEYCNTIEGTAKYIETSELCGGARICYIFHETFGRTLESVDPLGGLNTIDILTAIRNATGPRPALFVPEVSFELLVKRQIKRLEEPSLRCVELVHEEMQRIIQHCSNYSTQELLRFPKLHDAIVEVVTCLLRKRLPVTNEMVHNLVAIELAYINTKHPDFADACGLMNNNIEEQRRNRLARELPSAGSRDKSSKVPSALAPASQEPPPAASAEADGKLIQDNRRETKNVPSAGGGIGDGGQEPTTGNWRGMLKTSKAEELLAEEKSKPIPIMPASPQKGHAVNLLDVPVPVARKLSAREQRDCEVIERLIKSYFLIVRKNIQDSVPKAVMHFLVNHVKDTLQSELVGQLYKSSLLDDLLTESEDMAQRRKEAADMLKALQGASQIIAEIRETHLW

Legend:
[1] = biological target: Drp1, endogenous, mouse brain (mouse (endogenous in brain)) (UniProt Q8K1M6); assay: affinity purification with mass spectrometry; immunoprecipitation with antibodies to Drp1 or Zdhhc13 from whole brains of WT and HOM mice; pellets analysed by mass spectrometry
[2] = biological target: T1, Zdhhc13, endogenous, WT mouse brain (mouse (endogenous in brain)) (UniProt Q9CWU2); assay: as above
T1 sequence: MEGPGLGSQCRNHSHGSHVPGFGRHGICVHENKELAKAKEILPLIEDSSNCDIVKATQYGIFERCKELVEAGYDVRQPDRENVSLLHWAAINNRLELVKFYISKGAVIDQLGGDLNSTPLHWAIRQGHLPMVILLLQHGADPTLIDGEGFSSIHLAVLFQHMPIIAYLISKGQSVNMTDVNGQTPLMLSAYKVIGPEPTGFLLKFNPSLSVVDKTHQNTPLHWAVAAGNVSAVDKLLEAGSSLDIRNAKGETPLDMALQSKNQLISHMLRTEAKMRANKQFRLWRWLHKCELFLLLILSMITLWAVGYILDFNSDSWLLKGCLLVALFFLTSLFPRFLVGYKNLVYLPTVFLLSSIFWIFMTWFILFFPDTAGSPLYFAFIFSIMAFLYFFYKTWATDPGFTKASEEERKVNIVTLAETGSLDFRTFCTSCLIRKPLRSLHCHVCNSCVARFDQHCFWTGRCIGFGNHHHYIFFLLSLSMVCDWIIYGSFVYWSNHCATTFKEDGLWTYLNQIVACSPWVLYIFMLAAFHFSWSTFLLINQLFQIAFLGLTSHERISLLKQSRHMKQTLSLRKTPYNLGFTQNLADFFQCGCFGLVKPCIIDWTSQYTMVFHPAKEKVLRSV

B1: mitochondrial glutamate carrier 1 (protein, UniProt Q9D6M3 1-323)
chain: MADKQISLPAKLINGGIAGLIGVTCVFPIDLAKTRLQNQQNGQRMYASMSDCLIKTIRSEGYFGMYRGAAVNLTLVTPEKAIKLAANDFFRHQLSKDGQKLTLPKEMLAGCGAGTCQVIVTTPMEMLKIQLQDAGRIAAQRKILAAQAQLSAQGGAQPSVEAPAPPRPTATQLTRDLLRNHGIAGLYKGLGATLLRDVPFSIVYFPLFANLNQLGRPSSEEKSPFYVSFLAGCVAGSAAAVAVNPCDVVKTRLQSLERGVNEDTYSGFLDCARKIWRHEGPSAFLKGAYCRALVIAPLFGIAQVVYFLGIAESLLGLLQEPQA
- binding [1]: binds
- binding [2]: binds

No constants are given. Whether binding was seen depends on the method and setting. In cells and extracts the contact can be indirect. Here binding means that the protein was enriched with, or labelled near, the bait; the list need not be complete.
